Results on four substances are retold here after paper PMC3053220.

Chains of the proteins cited; added tags and fusions are not shown. Lines headed by an entry give the natural chain unless they say otherwise; changes in a name come on top. A line that says so, or that is headed by a name, gives the form on record, which may keep a tag or linker. Residues count along the entry.
UniProt Q9HC98: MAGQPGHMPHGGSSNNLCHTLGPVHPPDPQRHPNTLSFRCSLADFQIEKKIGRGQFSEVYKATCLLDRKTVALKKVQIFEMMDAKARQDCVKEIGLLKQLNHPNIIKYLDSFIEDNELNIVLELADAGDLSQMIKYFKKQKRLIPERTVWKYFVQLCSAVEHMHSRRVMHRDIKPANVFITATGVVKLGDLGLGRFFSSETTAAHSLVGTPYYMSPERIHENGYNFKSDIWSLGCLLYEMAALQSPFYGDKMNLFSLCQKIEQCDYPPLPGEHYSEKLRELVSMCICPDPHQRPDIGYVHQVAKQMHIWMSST
truncated hNek6 wild-type kinase domain fused to a 6xHis tag (6xHis-hNek6(Δ1-44)): residues 45-313 of Q9HC98

In assay [1] the target is dephosphorylated mutant hNek6(S206A) fused to a 6xHis tag (6xHis-hNek6(S206A)D) (human) (UniProt Q9HC98). Description: SEC-MALS; Superdex 200 10/300 GL, 20°C, 0.2 to 0.7 mg/ml; two buffers: 50 mM HEPES pH 7.5, 5 mM sodium phosphate, 600 mM NaCl, 5% glycerol, and 50 mM HEPES pH 7.5, 5 mM sodium phosphate, 300 mM NaCl, 5% glycerol, 200 mM imidazole; both purified. A general note: SEC sorts molecules by how far they enter the pores of the column.

Assay [2] addresses dephosphorylated wild-type hNek6 fused to a 6xHis tag (6xHis-hNek6wtD) (human) (UniProt Q9HC98). The assay is described as above.
The target in assay [3] is activation loop mutant hNek6(S206A) fused to a 6xHis tag (6xHis-hNek6(S206A)) (human) (UniProt Q9HC98). Description: SAXS; 6xHis-hNek6(S206A) at 0.5 and 1.0 mg/mL, 4°C, 50 mM HEPES pH 7.5, 5 mM sodium phosphate, 300 mM NaCl, 5% glycerol, 200 mM imidazole; molecular mass from I(0) with BSA as standard; both purified.
The target is the same in assay [4]. The assay is described as follows: SEC-MALS; Superdex 200 10/300 GL, 20°C, 0.2 to 0.7 mg/ml; two buffers: 50 mM HEPES pH 7.5, 5 mM sodium phosphate, 600 mM NaCl, 5% glycerol, and 50 mM HEPES pH 7.5, 5 mM sodium phosphate, 300 mM NaCl, 5% glycerol, 200 mM imidazole; both purified.
The target in assay [5] is truncated hNek6 wild-type kinase domain fused to a 6xHis tag (6xHis-hNek6(Δ1-44)) (human) (UniProt Q9HC98). Described as above.

No constants are given. Whether binding was seen depends on the method and setting.

As for “dephosphorylated mutant hNek6(S206A) fused to a 6xHis tag (6xHis-hNek6(S206A)D) (from UniProt Q9HC98-1 1-313) (enzyme)”, the binding result in assay [1] is listed as “no binding (tested: 0.2 to 0.7 mg/ml)”. As to “dephosphorylated wild-type hNek6 fused to a 6xHis tag (6xHis-hNek6wtD) (from UniProt Q9HC98-1 1-313) (enzyme)”, in assay [2], the binding entry is “no binding (tested: 0.2 to 0.7 mg/ml)”. Turning to “activation loop mutant hNek6(S206A) fused to a 6xHis tag (6xHis-hNek6(S206A)) (from UniProt Q9HC98-1 1-313) (enzyme)”, the binding entry in assay [3] was “no binding (tested: 0.5 and 1.0 mg/mL)”; in assay [4] it was “no binding (tested: 0.2 to 0.7 mg/ml)”.

With “truncated hNek6 wild-type kinase domain fused to a 6xHis tag (6xHis-hNek6(Δ1-44)) (from UniProt Q9HC98-1 45-313) (domain or fragment)”, the binding result in assay [5] was “no binding (tested: 0.2 to 0.7 mg/ml)”.
